{"source": "patent US6710062B1", "about": "“Cyanomethylene compounds, process for producing the same, and agricultural or horticultural bactericide” (Otsuka Chemical Co., Ltd., priority 1999, dated 2004)", "note": "Some entries share one result that the patent states for a list of compounds.", "data": [{"test_system": "powdery mildew pathogen (Erysiphe graminis f. sp. tritilci)", "experiment": "Fungicidal test for controlling of wheat powdery mildew (Test Example 2)", "assay_type": "in vivo", "conditions": "test solution 200 ppm sprayed on wheat seedlings (Shirasagi), conidia sprinkled, 18° C. for 7 days, first leaf scored 0-10, compared with untreated plants", "units": {"percent disease control value": "%"}, "values": [{"smiles": "COC(=O)c1ccccc1N1CCSC1=C(C#N)Sc1ccccc1", "note": "[Compound 159]", "percent disease control value": "≥ 50"}, {"smiles": "Cc1ccc(C(F)(F)F)cc1SC(C#N)=C1SCCN1c1ccccc1", "note": "[Compound 171]", "percent disease control value": "≥ 50"}, {"smiles": "COc1ccc(C)cc1N1CCSC1=C(C#N)Sc1cc(C(F)(F)F)ccc1F", "note": "[Compound 185]", "percent disease control value": "≥ 50"}]}, {"test_system": "cucumber powdery mildew", "experiment": "Fungicidal test for control of cucumber powdery mildew (Test Example 1)", "assay_type": "in vivo", "conditions": "sample solution 200 ppm spread over potted cucumber, spores sprayed, checked after 10 days, compared with untreated plant", "units": {"percent disease control value": "%"}, "values": [{"smiles": "COC(=O)c1ccccc1N1CCSC1=C(C#N)Sc1ccccc1", "note": "[Compound 159]", "percent disease control value": "≥ 50"}, {"smiles": "Cc1ccc(C(F)(F)F)cc1SC(C#N)=C1SCCN1c1ccccc1", "note": "[Compound 171]", "percent disease control value": "≥ 50"}, {"smiles": "COc1ccc(C)cc1N1CCSC1=C(C#N)Sc1cc(C(F)(F)F)ccc1F", "note": "[Compound 185]", "percent disease control value": "≥ 50"}]}]}
